Measured values published in article PMC10570035.
No constants are given. Whether binding was seen depends on the method and setting. Some binding calls cover weakened binding; strength is not graded here. Sequences can lack the tags named with a protein.

Sequences of proteins named here, by UniProt entry; tags and fusion partners are left off.
UniProt P0A6F5: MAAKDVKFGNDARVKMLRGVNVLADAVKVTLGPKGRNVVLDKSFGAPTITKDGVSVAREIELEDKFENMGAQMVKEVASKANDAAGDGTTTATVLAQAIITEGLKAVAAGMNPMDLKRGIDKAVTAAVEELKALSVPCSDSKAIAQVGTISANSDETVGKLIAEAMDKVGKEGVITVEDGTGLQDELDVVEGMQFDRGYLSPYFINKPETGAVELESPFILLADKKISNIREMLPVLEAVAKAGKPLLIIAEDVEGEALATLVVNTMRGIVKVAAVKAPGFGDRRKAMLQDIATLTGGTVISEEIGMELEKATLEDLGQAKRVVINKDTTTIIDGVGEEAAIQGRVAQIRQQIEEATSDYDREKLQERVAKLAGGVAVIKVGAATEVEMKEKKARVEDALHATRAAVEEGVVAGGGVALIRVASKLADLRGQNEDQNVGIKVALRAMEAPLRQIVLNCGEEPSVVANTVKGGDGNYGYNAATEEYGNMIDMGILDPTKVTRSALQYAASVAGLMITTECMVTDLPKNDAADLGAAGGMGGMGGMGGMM

What was measured:
Test in all cases: co-purification through two affinity steps; MBP-eIF2A-His6 (wild type or deletion mutant) purified from E. coli lysate on cobalt resin by the His6 tag, then on amylose resin by the MBP tag; GroEL seen by SDS-PAGE and Coomassie stain and identified by mass spectrometry
[1] = biological target: T1, MBP-eIF2A(1-430)-His6 (human) (UniProt Q9BY44)
T1 sequence: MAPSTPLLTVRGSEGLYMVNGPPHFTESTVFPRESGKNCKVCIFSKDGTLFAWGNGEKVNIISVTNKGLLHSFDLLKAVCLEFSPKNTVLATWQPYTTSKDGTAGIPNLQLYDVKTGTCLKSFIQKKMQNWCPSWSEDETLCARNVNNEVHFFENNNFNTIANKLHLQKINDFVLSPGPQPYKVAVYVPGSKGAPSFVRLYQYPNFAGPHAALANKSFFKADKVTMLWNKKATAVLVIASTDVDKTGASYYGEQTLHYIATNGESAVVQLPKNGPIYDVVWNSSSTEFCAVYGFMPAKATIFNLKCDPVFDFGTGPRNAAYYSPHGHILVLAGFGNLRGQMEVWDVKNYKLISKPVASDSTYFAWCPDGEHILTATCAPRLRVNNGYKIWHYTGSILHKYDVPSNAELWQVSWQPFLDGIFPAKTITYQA

MBP-eIF2A-His6 (human) = biological target: T2, MBP-eIF2A-His6 (human) (UniProt Q9BY44)
T2 sequence: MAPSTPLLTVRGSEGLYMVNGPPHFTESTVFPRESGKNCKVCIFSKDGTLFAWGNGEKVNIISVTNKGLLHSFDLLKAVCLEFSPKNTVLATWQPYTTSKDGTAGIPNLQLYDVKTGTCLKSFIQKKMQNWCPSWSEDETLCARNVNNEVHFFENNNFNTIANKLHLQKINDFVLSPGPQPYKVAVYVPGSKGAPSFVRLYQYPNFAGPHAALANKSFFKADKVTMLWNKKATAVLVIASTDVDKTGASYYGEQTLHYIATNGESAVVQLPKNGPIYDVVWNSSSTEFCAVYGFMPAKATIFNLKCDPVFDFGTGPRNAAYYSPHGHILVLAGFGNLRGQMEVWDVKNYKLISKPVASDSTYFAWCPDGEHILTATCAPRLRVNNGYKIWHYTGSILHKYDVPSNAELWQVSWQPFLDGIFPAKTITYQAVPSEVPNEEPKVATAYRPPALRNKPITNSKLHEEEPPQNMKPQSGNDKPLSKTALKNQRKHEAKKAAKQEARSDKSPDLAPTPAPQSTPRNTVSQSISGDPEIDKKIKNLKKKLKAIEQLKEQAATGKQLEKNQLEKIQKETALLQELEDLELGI

[2] = biological target: T3, MBP-eIF2A(533-585)-His6 (human) (UniProt Q9BY44)
T3 sequence: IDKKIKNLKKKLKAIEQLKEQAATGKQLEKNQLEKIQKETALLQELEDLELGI

[3] = biological target: T4, MBP-eIF2A(1-480)-His6 (human) (UniProt Q9BY44)
T4 sequence: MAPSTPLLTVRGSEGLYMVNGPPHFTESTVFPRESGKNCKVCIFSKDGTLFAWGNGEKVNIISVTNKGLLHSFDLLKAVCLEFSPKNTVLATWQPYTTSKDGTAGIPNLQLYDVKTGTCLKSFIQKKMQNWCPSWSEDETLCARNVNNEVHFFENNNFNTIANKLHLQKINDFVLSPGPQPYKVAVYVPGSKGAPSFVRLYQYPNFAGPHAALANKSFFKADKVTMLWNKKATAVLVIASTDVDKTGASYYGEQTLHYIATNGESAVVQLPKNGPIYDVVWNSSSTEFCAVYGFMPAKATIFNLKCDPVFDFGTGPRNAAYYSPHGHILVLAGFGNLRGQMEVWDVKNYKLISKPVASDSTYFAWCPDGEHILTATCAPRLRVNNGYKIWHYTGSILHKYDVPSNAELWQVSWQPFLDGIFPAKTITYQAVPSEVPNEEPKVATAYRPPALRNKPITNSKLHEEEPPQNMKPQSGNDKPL

[4] = biological target: T5, MBP-eIF2A(1-437)-His6 (human) (UniProt Q9BY44)
T5 sequence: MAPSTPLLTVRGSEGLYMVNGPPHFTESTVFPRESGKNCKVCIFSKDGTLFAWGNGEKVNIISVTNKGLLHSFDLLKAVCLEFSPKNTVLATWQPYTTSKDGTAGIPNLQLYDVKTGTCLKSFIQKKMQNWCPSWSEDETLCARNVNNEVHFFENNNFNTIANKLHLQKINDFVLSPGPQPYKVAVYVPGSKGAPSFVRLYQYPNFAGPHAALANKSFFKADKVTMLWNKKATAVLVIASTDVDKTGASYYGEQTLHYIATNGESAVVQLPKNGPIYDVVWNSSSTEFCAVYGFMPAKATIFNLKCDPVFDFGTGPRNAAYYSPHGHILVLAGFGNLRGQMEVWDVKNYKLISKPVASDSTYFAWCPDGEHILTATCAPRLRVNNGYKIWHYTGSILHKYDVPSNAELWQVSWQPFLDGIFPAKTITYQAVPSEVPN

[5] = biological target: T6, MBP-eIF2A(1-471)-His6 (human) (UniProt Q9BY44)
T6 sequence: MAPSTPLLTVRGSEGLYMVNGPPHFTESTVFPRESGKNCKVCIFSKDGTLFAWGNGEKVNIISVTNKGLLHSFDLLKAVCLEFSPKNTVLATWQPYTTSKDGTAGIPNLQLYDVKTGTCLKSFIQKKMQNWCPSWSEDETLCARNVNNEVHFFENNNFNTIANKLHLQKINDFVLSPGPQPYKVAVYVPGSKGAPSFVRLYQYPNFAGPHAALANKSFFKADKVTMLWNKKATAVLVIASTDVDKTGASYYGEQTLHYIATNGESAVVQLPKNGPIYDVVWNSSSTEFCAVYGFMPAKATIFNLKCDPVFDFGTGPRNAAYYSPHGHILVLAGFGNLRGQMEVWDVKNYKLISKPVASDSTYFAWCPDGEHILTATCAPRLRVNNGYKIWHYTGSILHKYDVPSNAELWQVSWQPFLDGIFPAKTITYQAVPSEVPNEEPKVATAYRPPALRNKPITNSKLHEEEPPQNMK

[6] = biological target: T7, MBP-eIF2A(1-437, GGS linker, 504-556)-His6 (human) (UniProt Q9BY44)
T7 sequence: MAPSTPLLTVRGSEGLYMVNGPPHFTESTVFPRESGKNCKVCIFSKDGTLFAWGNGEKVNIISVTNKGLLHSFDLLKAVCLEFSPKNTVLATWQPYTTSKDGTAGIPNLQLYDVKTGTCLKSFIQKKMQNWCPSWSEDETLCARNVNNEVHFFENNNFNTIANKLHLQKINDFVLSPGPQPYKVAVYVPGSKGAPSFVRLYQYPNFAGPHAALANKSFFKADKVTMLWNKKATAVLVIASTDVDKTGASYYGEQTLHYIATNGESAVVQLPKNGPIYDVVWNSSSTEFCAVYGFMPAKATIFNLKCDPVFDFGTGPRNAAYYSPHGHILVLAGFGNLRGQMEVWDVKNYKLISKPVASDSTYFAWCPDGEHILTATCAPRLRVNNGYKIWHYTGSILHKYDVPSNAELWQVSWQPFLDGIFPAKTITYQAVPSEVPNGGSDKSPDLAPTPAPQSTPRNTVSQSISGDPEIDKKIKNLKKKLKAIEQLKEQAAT

[7] = biological target: T8, MBP-eIF2A(1-415)-His6 (human) (UniProt Q9BY44)
T8 sequence: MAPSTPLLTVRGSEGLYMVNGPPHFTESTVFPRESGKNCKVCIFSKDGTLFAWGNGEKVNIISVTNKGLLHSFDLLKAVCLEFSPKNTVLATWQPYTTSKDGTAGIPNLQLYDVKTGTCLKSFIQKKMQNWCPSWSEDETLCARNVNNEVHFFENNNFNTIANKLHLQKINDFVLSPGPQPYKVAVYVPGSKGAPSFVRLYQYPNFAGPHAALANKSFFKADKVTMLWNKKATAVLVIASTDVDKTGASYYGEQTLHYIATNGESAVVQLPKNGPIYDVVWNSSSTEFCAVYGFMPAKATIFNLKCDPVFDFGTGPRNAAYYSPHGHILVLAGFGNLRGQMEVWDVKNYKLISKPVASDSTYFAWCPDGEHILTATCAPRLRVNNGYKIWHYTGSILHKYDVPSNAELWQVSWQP

[8] = biological target: T9, MBP-eIF2A(416-585)-His6 (human) (UniProt Q9BY44)
T9 sequence: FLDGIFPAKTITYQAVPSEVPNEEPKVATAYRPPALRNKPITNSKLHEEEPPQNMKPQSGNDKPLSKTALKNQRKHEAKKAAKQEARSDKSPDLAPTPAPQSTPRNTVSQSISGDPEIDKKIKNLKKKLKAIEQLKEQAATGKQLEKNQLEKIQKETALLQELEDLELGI

[9] = biological target: T10, MBP-eIF2A(1-437, GGS linker, 529-556)-His6 (human) (UniProt Q9BY44)
T10 sequence: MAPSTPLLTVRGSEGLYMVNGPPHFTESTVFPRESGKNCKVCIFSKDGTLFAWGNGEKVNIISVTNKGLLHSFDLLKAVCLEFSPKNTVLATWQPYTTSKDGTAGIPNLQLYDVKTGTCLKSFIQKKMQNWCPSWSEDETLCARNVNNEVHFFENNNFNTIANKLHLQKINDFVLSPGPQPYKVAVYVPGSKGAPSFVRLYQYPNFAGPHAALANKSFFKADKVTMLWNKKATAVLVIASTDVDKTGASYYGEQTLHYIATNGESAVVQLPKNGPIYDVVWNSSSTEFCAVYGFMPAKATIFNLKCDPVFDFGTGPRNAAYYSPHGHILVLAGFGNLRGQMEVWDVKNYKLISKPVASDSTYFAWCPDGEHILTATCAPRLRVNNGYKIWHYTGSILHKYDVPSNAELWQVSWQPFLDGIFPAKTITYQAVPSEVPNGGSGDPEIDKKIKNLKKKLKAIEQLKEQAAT

binding [1]: binds
binding (MBP-eIF2A-His6 (human)): binds
binding [2]: binds
binding [3]: binds
binding [4]: binds
binding [5]: binds
binding [6]: binds
binding [7]: binds
binding [8]: binds
binding [9]: binds
Substance: E. coli GroEL chaperone (from UniProt P0A6F5 1-548)
